Measurements from the supplement of paper PMC6411743.
± gives the standard deviation of the averaged measurements. Only a part is listed here, and it is no random draw.

Amino acid sequences for entries named in this document (tags omitted). A change or cut given only in a name is not applied to a line headed by its entry.
UniProt P61599, whole entry: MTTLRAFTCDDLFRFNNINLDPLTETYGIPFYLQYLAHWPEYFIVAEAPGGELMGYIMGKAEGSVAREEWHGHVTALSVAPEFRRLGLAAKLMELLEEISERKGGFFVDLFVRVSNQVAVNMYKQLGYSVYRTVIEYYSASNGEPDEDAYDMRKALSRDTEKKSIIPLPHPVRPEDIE
UniProt P56962: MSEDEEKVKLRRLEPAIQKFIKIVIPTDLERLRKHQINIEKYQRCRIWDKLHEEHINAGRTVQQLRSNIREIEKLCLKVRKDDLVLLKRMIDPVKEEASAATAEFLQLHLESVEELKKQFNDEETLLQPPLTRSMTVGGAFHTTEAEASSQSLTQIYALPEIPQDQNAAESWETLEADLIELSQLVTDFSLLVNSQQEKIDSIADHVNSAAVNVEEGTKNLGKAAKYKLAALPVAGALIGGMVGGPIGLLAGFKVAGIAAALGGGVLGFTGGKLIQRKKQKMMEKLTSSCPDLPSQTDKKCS
UniProt Q02535: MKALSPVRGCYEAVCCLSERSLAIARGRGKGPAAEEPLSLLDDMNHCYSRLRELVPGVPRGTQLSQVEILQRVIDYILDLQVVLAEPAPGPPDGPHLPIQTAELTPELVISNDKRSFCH
UniProt Q04446: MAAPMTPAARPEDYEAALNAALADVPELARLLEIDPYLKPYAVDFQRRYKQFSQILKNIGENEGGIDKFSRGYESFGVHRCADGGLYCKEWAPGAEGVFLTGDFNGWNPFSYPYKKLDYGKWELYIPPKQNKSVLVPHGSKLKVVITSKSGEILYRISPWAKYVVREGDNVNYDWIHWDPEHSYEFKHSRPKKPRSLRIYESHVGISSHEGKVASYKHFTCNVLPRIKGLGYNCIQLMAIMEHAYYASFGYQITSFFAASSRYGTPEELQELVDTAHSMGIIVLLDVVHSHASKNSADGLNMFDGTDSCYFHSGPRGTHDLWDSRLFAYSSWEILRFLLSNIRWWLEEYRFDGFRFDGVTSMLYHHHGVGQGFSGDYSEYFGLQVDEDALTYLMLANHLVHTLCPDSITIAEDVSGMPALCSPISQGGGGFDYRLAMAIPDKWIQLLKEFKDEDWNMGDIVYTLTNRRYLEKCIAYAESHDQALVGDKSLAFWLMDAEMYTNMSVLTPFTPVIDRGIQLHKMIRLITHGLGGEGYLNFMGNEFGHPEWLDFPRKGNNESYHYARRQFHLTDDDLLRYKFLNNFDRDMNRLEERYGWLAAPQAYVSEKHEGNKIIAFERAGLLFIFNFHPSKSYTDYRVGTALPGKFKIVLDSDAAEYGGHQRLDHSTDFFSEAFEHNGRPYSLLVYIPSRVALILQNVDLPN
UniProt P78406: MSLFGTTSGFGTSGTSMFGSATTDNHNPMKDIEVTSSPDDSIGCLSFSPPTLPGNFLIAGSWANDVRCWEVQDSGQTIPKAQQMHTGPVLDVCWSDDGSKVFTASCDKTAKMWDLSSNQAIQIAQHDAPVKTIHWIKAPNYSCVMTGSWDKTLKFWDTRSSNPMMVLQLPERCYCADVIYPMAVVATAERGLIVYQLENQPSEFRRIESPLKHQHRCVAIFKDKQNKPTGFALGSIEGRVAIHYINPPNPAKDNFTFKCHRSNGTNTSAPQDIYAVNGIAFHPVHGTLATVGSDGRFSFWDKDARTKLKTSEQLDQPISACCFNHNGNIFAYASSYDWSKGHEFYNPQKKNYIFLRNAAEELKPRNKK
UniProt Q06609, whole entry: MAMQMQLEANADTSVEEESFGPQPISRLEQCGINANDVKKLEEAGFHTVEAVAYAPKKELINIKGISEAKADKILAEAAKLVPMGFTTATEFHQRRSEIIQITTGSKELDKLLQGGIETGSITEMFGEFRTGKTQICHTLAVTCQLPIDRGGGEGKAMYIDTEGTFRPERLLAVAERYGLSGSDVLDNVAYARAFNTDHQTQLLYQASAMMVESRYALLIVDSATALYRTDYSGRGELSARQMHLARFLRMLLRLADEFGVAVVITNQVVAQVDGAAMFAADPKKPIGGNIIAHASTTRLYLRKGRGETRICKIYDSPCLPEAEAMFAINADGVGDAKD
UniProt Q04724: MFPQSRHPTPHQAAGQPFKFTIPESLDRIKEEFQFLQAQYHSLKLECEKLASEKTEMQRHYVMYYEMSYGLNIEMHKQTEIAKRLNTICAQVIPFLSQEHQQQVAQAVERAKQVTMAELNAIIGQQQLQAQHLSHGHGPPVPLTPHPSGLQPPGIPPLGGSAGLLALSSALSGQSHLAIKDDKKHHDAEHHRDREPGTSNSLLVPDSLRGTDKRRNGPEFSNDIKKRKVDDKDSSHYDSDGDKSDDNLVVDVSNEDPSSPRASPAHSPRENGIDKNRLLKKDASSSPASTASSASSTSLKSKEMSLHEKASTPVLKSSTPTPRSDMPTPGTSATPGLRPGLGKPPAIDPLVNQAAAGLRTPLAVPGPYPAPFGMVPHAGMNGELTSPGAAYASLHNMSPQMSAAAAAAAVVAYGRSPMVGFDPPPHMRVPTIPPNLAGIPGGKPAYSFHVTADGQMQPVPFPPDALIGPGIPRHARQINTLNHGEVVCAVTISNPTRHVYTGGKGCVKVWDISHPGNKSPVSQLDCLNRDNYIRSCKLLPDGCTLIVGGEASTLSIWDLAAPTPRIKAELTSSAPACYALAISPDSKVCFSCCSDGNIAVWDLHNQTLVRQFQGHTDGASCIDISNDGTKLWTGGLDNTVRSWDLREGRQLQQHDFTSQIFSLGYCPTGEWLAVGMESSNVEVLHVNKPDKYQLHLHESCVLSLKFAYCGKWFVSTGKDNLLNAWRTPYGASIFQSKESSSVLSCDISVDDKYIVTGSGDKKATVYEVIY
UniProt P78332: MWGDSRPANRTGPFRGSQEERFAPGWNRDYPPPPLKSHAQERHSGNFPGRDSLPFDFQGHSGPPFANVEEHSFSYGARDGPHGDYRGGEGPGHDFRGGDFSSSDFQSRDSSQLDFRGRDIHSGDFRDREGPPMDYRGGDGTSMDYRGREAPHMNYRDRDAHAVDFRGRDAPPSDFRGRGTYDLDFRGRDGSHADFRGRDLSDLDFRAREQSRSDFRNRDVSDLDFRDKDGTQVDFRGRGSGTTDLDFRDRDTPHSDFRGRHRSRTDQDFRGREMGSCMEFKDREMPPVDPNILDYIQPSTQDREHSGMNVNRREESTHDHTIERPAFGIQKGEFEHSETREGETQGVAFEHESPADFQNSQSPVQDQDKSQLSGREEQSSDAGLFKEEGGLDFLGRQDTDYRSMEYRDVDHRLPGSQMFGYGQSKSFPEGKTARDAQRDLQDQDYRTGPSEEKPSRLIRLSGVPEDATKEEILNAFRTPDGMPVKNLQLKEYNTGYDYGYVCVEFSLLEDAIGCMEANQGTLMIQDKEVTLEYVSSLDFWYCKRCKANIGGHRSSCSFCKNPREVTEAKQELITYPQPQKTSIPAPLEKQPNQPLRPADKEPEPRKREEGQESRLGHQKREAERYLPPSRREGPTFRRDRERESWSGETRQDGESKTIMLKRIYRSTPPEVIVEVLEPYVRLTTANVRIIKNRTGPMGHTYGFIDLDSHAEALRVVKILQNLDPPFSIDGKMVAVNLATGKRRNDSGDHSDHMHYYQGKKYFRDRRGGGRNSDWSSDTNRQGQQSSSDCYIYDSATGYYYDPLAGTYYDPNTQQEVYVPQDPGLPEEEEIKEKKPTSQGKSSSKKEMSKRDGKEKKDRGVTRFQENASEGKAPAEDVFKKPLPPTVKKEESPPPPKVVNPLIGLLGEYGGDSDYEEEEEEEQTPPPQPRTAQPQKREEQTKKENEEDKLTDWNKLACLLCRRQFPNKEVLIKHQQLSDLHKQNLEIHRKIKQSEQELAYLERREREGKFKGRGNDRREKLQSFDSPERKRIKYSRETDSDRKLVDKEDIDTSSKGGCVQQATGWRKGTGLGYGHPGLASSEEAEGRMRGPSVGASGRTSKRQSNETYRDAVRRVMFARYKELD
UniProt P62328: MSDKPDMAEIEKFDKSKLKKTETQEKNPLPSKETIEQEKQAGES
UniProt P62330: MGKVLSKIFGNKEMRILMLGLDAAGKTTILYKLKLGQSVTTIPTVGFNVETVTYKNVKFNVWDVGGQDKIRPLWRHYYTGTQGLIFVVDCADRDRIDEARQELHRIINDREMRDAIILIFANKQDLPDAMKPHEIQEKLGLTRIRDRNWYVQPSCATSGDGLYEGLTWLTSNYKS
UniProt Q04721: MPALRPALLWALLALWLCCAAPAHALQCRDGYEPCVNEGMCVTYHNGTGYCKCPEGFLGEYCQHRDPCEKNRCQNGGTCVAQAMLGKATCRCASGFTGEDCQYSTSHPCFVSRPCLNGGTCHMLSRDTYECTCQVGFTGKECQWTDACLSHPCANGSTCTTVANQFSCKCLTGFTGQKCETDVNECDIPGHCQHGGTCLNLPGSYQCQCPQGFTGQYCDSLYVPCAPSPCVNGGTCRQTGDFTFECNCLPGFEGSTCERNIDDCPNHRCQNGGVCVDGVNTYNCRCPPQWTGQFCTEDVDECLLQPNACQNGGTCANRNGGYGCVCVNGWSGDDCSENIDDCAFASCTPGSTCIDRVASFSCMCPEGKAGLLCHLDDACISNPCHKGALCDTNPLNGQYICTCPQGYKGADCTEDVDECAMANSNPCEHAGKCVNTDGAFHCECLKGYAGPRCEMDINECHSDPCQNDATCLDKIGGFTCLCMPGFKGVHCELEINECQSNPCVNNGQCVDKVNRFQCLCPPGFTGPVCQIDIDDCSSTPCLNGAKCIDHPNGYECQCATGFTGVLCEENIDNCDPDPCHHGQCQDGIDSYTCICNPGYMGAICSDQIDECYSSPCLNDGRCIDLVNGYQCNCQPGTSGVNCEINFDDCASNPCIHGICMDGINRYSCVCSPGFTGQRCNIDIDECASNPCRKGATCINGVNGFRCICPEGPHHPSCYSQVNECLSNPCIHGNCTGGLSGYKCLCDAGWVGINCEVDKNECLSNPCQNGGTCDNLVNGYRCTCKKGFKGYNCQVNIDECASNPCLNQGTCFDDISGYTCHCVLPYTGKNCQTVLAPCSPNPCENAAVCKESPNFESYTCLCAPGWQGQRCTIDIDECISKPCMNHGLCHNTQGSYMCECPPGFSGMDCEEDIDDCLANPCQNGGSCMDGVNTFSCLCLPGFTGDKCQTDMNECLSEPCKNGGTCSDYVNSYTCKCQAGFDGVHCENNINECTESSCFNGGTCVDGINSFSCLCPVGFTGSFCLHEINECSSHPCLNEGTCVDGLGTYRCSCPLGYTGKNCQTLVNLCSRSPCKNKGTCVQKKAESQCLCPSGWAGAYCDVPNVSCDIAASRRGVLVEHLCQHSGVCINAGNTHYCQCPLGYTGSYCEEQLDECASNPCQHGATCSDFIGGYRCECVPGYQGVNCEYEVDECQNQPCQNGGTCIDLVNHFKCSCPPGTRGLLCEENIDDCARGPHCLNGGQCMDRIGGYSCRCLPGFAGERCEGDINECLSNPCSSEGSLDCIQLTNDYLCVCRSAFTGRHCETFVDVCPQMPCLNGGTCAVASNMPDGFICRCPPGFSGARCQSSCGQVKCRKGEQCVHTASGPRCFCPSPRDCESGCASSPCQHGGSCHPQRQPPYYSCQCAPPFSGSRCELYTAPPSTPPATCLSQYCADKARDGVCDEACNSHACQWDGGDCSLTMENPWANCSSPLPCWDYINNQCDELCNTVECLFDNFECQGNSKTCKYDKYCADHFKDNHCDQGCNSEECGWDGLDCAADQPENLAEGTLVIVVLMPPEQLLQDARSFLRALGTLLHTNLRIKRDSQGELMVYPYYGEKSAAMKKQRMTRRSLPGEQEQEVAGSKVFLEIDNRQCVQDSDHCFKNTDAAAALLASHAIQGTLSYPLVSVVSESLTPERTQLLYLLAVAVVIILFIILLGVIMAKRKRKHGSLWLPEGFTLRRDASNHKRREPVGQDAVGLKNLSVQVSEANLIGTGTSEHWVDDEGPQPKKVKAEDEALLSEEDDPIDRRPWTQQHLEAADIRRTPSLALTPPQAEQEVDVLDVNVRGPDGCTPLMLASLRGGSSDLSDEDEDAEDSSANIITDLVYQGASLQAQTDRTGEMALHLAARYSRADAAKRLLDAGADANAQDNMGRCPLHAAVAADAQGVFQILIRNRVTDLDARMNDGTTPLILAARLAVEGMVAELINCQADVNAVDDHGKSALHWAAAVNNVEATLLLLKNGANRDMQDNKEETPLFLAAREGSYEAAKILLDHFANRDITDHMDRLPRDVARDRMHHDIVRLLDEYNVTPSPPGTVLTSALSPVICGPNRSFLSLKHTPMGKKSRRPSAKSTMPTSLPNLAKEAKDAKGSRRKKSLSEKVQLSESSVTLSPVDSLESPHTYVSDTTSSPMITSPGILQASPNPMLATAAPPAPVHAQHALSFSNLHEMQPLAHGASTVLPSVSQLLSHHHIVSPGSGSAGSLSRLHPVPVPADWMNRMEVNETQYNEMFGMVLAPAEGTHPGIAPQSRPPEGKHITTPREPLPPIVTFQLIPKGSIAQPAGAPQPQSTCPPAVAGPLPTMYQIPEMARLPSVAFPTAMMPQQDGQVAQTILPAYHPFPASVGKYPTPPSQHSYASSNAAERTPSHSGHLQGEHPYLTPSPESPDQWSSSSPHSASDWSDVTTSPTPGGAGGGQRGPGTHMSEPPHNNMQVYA

Compound: Nc1ncnc2c1ncn2[C@@H]1O[C@H](COP(=O)(O)OP(=O)(O)NP(=O)(O)O)[C@@H](O)[C@H]1O [adenylyl imidodiphosphate]
Assay: NP40-soluble protein abundance relative to vehicle (solubility fold change) (ratio); higher = more soluble protein in presence of AMP-PNP
Method in brief: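 Crude Jurkat lysate, prepared by Dounce homogenisation, was exposed to eight concentrations from 0.1 to 10 mM for 10 min at room temperature and then 3 min at 37 °C. Solubilisation used 0.8% NP40 with benzonase for 60 min at 4 °C, followed by ultracentrifugation and TMT labelling of the supernatant for LC-MS/MS. After vsn normalisation of intensities, each value is the fold change against the detergent-processed vehicle within each replicate, across three independent experiments.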

| Target | NP40-soluble protein abundance (concentration: 1mM) | NP40-soluble protein abundance (concentration: 2mM) | NP40-soluble protein abundance (concentration: 4mM) | NP40-soluble protein abundance (concentration: 6mM) | NP40-soluble protein abundance (concentration: 8mM) | NP40-soluble protein abundance (concentration: 10mM) |
| --- | --- | --- | --- | --- | --- | --- |
| UniProt Q02750 | 1.028 ± 0.0098 | 0.977 ± 0.038 | 0.966 ± 0.037 | 1.08 ± 0.051 | 1.05 ± 0.093 | 1.08 ± 0.052 |
| UniProt P62269 | 0.938 ± 0.059 | 0.929 ± 0.033 | 0.906 ± 0.081 | 0.876 ± 0.05 | 0.785 ± 0.034 | 0.861 ± 0.087 |
| PPP2CA (UniProt P67775) | 0.987 ± 0.02 | 0.9847 ± 0.0024 | 0.889 ± 0.034 | 0.967 ± 0.069 | 0.9346 ± 0.0071 | 0.913 ± 0.022 |
| UniProt Q07817 and related entries | 1 ± 0.024 | 1.03 ± 0.046 | 1.02 ± 0.019 | 0.958 ± 0.025 | 0.98 ± 0.016 | 0.96 ± 0.053 |
| NAA20 (UniProt P61599) | 0.999 ± 0.039 | 0.9558 ± 0.0052 | 0.991 ± 0.022 | 0.973 ± 0.01 | 1.026 ± 0.0096 | 0.9551 ± 0.001 |
| UniProt Q05932 and related entries | 1.019 ± 0.0054 | 1.017 ± 0.0061 | 1 ± 0.03 | 1.04 ± 0.037 | 1.02 ± 0.02 | 1.04 ± 0.015 |
| STX17 (UniProt P56962) | 0.966 ± 0.031 | 1.02 ± 0.11 | 0.973 ± 0.039 | 1.01 ± 0.08 | 1.01 ± 0.069 | 1.03 ± 0.042 |
| UniProt Q06787 and related entries | 1.05 ± 0.04 | 1.11 ± 0.013 | 1.1 ± 0.02 | 1.22 ± 0.066 | 1.24 ± 0.016 | 1.36 ± 0.02 |
| UniProt P62306 | 1.01 ± 0.037 | 1.08 ± 0.083 | 1.03 ± 0.045 | 1.1 ± 0.042 | 1.14 ± 0.049 | 1.16 ± 0.058 |
| UniProt P55884 and related entries | 0.991 ± 0.022 | 0.94 ± 0.06 | 1.05 ± 0.098 | 1.16 ± 0.043 | 1.23 ± 0.046 | 1.28 ± 0.15 |
| PRKCQ (UniProt Q04759) | 1.07 ± 0.079 | 0.991 ± 0.11 | 1.02 ± 0.068 | 1.01 ± 0.051 | 1.02 ± 0.075 | 0.975 ± 0.066 |
| UniProt Q02535 | 0.9856 ± 0.0021 | 0.9757 ± 0.0014 | 0.954 ± 0.012 | 0.9714 ± 0.0042 | 0.979 ± 0.013 | 0.9699 ± 0.0014 |
| RPL10A (UniProt P62906) | 0.95 ± 0.051 | 0.903 ± 0.067 | 0.87 ± 0.073 | 0.82 ± 0.029 | 0.719 ± 0.045 | 0.787 ± 0.095 |
| RPL7A (UniProt P62424) | 0.961 ± 0.065 | 0.94 ± 0.017 | 0.946 ± 0.12 | 0.905 ± 0.1 | 0.818 ± 0.055 | 0.916 ± 0.16 |
| UniProt Q03188 and related entries | 1.002 ± 0.0099 | 1.05 ± 0.04 | 1.03 ± 0.025 | 1 ± 0.044 | 0.976 ± 0.012 | 1.01 ± 0.025 |
| UniProt Q01105-2 | 0.874 ± 0.16 | 1.03 ± 0.029 | 0.847 ± 0.2 | 0.885 ± 0.12 | 0.892 ± 0.083 | 0.875 ± 0.14 |
| GBE1 (UniProt Q04446) | 0.966 ± 0.039 | 0.918 ± 0.043 | 0.956 ± 0.011 | 0.956 ± 0.046 | 0.955 ± 0.044 | 0.905 ± 0.03 |
| UniProt P78406 and related entries | 1.03 ± 0.047 | 1.02 ± 0.011 | 1.06 ± 0.039 | 1.12 ± 0.017 | 1.16 ± 0.0096 | 1.2 ± 0.018 |
| P86790 and related entries (UniProt P86791+P86790) | 0.998 ± 0.019 | 0.936 ± 0.053 | 0.991 ± 0.042 | 0.94 ± 0.037 | 0.9407 ± 0.0085 | 0.911 ± 0.016 |
| P62158 (UniProt P0DP23) | 1.08 ± 0.061 | 1.03 ± 0.082 | 1.08 ± 0.046 | 1.11 ± 0.034 | 1.14 ± 0.013 | 1.11 ± 0.058 |
| UniProt P60866 and related entries | 0.932 ± 0.061 | 0.906 ± 0.058 | 0.883 ± 0.13 | 0.91 ± 0.04 | 0.889 ± 0.043 | 0.929 ± 0.13 |
| UniProt Q06609 and related entries | 0.997 ± 0.024 | 1.03 ± 0.09 | 1 ± 0.031 | 1 ± 0.021 | 0.997 ± 0.051 | 1.01 ± 0.055 |
| UniProt Q04724 and related entries | 0.971 ± 0.024 | 1.04 ± 0.053 | 1.02 ± 0.035 | 0.982 ± 0.051 | 0.9569 ± 0.0015 | 0.964 ± 0.023 |
| OGDH (UniProt Q02218) | 1.01 ± 0.094 | 0.994 ± 0.12 | 1.02 ± 0.086 | 0.999 ± 0.1 | 1.01 ± 0.07 | 1.02 ± 0.1 |
| UniProt P78332 and related entries | 1.07 ± 0.029 | 1.18 ± 0.13 | 1.14 ± 0.061 | 1.14 ± 0.09 | 1.13 ± 0.051 | 1.19 ± 0.044 |
| EXOSC10 (UniProt Q01780) | 1.06 ± 0.044 | 1.11 ± 0.021 | 1.17 ± 0.066 | 1.24 ± 0.11 | 1.23 ± 0.1 | 1.32 ± 0.11 |
| FKBP4 (UniProt Q02790) | 0.98 ± 0.023 | 0.942 ± 0.032 | 0.959 ± 0.015 | 0.988 ± 0.022 | 0.976 ± 0.035 | 0.966 ± 0.02 |

4 records drawn at random from those above:

| Target | NP40-soluble protein abundance (concentration: 1mM) | NP40-soluble protein abundance (concentration: 2mM) | NP40-soluble protein abundance (concentration: 4mM) | NP40-soluble protein abundance (concentration: 6mM) | NP40-soluble protein abundance (concentration: 8mM) | NP40-soluble protein abundance (concentration: 10mM) |
| --- | --- | --- | --- | --- | --- | --- |
| PRKCQ (UniProt Q04759) | 1.07 ± 0.079 | 0.991 ± 0.11 | 1.02 ± 0.068 | 1.01 ± 0.051 | 1.02 ± 0.075 | 0.975 ± 0.066 |
| RPL7A (UniProt P62424) | 0.961 ± 0.065 | 0.94 ± 0.017 | 0.946 ± 0.12 | 0.905 ± 0.1 | 0.818 ± 0.055 | 0.916 ± 0.16 |
| UniProt Q07817 and related entries | 1 ± 0.024 | 1.03 ± 0.046 | 1.02 ± 0.019 | 0.958 ± 0.025 | 0.98 ± 0.016 | 0.96 ± 0.053 |
| UniProt Q02535 | 0.9856 ± 0.0021 | 0.9757 ± 0.0014 | 0.954 ± 0.012 | 0.9714 ± 0.0042 | 0.979 ± 0.013 | 0.9699 ± 0.0014 |

Remaining list, next part.

| Target | NP40-soluble protein abundance (concentration: 1mM) | NP40-soluble protein abundance (concentration: 2mM) | NP40-soluble protein abundance (concentration: 4mM) | NP40-soluble protein abundance (concentration: 6mM) | NP40-soluble protein abundance (concentration: 8mM) | NP40-soluble protein abundance (concentration: 10mM) |
| --- | --- | --- | --- | --- | --- | --- |
| TMSB4X (UniProt P62328) | 1.07 ± 0.056 | 0.999 ± 0.08 | 1 ± 0.073 | 0.935 ± 0.14 | 0.843 ± 0.083 | 0.905 ± 0.12 |
| GABPA (UniProt Q06546) | 0.985 ± 0.013 | 0.943 ± 0.037 | 0.95 ± 0.013 | 0.9583 ± 0.0071 | 0.9365 ± 0.0039 | 0.933 ± 0.023 |
| UniProt Q06547 and related entries | 1.02 ± 0.05 | 1.06 ± 0.06 | 1.03 ± 0.071 | 0.981 ± 0.035 | 0.954 ± 0.035 | 0.993 ± 0.12 |
| DHODH (UniProt Q02127) | 0.99 ± 0.032 | 0.919 ± 0.064 | 0.994 ± 0.016 | 0.967 ± 0.027 | 0.976 ± 0.014 | 0.956 ± 0.021 |
| CTDSPL2 (UniProt Q05D32) | 1.02 ± 0.014 | 1.06 ± 0.036 | 1.067 ± 0.0076 | 1.08 ± 0.037 | 1.09 ± 0.039 | 1.15 ± 0.035 |
| GTF2B (UniProt Q00403) | 0.954 ± 0.014 | 0.924 ± 0.071 | 0.958 ± 0.017 | 1.01 ± 0.013 | 0.994 ± 0.012 | 1 ± 0.025 |
| UniProt P62330 | 0.981 ± 0.088 | 0.917 ± 0.021 | 1.01 ± 0.024 | 0.971 ± 0.051 | 1.06 ± 0.049 | 0.982 ± 0.04 |
| UniProt Q01968 and related entries | 1.01 ± 0.044 | 0.968 ± 0.067 | 1.01 ± 0.075 | 0.994 ± 0.057 | 0.993 ± 0.062 | 0.989 ± 0.037 |
| NOTCH2 (UniProt Q04721) | 1.021 ± 0.0071 | 1.06 ± 0.055 | 1.02 ± 0.018 | 0.9946 ± 0.0071 | 0.973 ± 0.034 | 0.975 ± 0.023 |
| UniProt P61981 | 0.959 ± 0.052 | 1.05 ± 0.081 | 0.933 ± 0.056 | 0.976 ± 0.05 | 0.954 ± 0.053 | 0.921 ± 0.052 |
| UniProt P62263 | 1.03 ± 0.078 | 1.02 ± 0.029 | 0.993 ± 0.077 | 0.961 ± 0.077 | 0.908 ± 0.085 | 0.954 ± 0.11 |
| MRPS10 (UniProt P82664) | 1.03 ± 0.032 | 1.02 ± 0.069 | 1.01 ± 0.06 | 0.987 ± 0.049 | 0.999 ± 0.077 | 0.965 ± 0.059 |
| DHX9 (UniProt Q08211) | 1.18 ± 0.066 | 1.14 ± 0.16 | 1.21 ± 0.12 | 1.23 ± 0.095 | 1.27 ± 0.11 | 1.25 ± 0.18 |
| UniProt Q00839 and related entries | 1.03 ± 0.11 | 1.02 ± 0.075 | 1.01 ± 0.17 | 1.01 ± 0.17 | 1.03 ± 0.22 | 0.981 ± 0.14 |
| UniProt P61221 | 0.886 ± 0.032 | 0.803 ± 0.058 | 0.8639 ± 0.0073 | 0.896 ± 0.03 | 0.931 ± 0.011 | 0.903 ± 0.016 |
| UniProt P62495 | 0.947 ± 0.026 | 0.85 ± 0.09 | 0.895 ± 0.018 | 0.914 ± 0.033 | 0.94 ± 0.041 | 0.859 ± 0.014 |
| UniProt P62879 | 0.985 ± 0.022 | 0.954 ± 0.054 | 0.984 ± 0.018 | 1.01 ± 0.043 | 1.02 ± 0.036 | 0.964 ± 0.04 |
| UniProt P57081 and related entries | 0.93 ± 0.01 | 0.899 ± 0.056 | 0.9607 ± 0.0045 | 0.9953 ± 0.0047 | 0.977 ± 0.025 | 0.976 ± 0.017 |
| AP1S2 (UniProt P56377) | 0.994 ± 0.054 | 0.93 ± 0.093 | 0.979 ± 0.073 | 0.961 ± 0.07 | 0.977 ± 0.061 | 0.922 ± 0.073 |
| S100A10 (UniProt P60903) | 1.02 ± 0.038 | 1.05 ± 0.073 | 1 ± 0.08 | 0.96 ± 0.045 | 0.961 ± 0.061 | 0.978 ± 0.12 |
| UniProt Q00978 and related entries | 0.995 ± 0.013 | 1 ± 0.019 | 0.981 ± 0.019 | 0.99 ± 0.02 | 0.996 ± 0.034 | 0.998 ± 0.029 |
| YBEY (UniProt P58557) | 1.03 ± 0.048 | 1.03 ± 0.018 | 1.03 ± 0.012 | 1.03 ± 0.011 | 0.9963 ± 0.0083 | 1.02 ± 0.018 |
| EEFSEC (UniProt P57772) | 0.988 ± 0.024 | 0.969 ± 0.027 | 0.993 ± 0.046 | 1.029 ± 0.0068 | 1.04 ± 0.041 | 1.03 ± 0.024 |
| UniProt Q01826 and related entries | 1.03 ± 0.033 | 1.07 ± 0.05 | 1.03 ± 0.051 | 0.985 ± 0.037 | 0.985 ± 0.026 | 1.01 ± 0.05 |
| ITGA1 (UniProt P56199) | 1.03 ± 0.019 | 1.04 ± 0.025 | 1.04 ± 0.039 | 1.02 ± 0.028 | 1.003 ± 0.0087 | 0.972 ± 0.026 |
| RPS3A (UniProt P61247) | 0.96 ± 0.052 | 0.931 ± 0.044 | 0.918 ± 0.11 | 0.895 ± 0.081 | 0.83 ± 0.057 | 0.947 ± 0.11 |
| SOX4 (UniProt Q06945) | 1.03 ± 0.025 | 1.07 ± 0.07 | 1.04 ± 0.017 | 1.04 ± 0.025 | 1.04 ± 0.042 | 1.06 ± 0.017 |
